{
  "sequences": {"note": "By UniProt entry, the sequences of proteins in these tests, tags left out.", "UniProt P35462, whole entry, looked up": "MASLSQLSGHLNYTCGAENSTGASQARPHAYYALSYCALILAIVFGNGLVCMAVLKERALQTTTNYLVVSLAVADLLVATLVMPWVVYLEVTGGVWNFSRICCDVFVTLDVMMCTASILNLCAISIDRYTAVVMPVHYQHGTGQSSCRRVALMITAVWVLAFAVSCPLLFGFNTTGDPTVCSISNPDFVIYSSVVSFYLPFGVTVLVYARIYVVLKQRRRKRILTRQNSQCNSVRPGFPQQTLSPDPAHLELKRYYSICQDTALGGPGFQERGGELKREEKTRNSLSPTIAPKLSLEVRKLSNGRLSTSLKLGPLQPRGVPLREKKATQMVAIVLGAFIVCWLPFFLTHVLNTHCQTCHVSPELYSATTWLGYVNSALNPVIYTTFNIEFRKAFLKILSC"},
  "source": "PubChem BioAssay AID652054",
  "about": "(National Center for Advancing Translational Sciences (NCATS), 2013)",
  "note": "Values joined by “and” are separate entries in the source; they are usually repeats but may differ in a detail not shown here. Equal entries are not always repeated. The whole screen tested about 360,000 compounds, of which about 9,100 (2.5%) were called active. Inconclusive results, whose numbers are uncertain, are shown with a selection of clear calls. Rule as the data show it: active = max response below about -50%; inconclusive = no clear call, values can overlap the other calls; inactive = above that. % is scaled to controls: 0 for no effect and ±100 for the full control effect.",
  "data": [
    {"molecular_target": "D(3) dopamine receptor (Homo sapiens) (UniProt P35462)", "test": "qHTS of D3 Dopamine Receptor Antagonist: qHTS", "settings": "D3R cells, DiscoveRx beta-arrestin luminescence, antagonist mode; active compounds read low", "method_in_brief": "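Cells plated overnight at 1500 cells/well, then exposed to library compounds with dopamine controls for 90 minutes at 37 degrees C. DiscoveRx reagent added for 30–60 minutes at room temperature; luminescence read, quantitative HTS format.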", "values": [
      {"smiles": "CC(C)NC(C)Cc1ccc(I)cc1", "note": "(stereo not drawn)", "max response, negative = inhibition": "active: -88.7%"},
      {"smiles": "CC(C)C[C@@H]1COc2cc(N3CCN(C)CC3)ccc2S(=O)(=O)N1", "max response, negative = inhibition": "inconclusive: -48.8%"},
      {"smiles": "N=C1c2ccccc2CN1NC(=O)c1ccc(Br)cc1", "max response, negative = inhibition": "inactive: -12.6%"},
      {"smiles": "CCOC(=O)N1CCC(NC(=O)CCc2nc(C3=CCN(C)CC3)no2)CC1", "max response, negative = inhibition": "inactive: 6.32% and inactive: 4.28%"},
      {"smiles": "Nc1cc(Cl)c2nonc2c1[N+](=O)[O-]", "max response, negative = inhibition": "active: -57.9%"},
      {"smiles": "O=[N+]([O-])c1ccc(-c2ccccc2)c([As](=O)(O)O)c1", "max response, negative = inhibition": "inconclusive: -32%"},
      {"smiles": "NC(=Nc1ccccc1)NN=Cc1c[nH]c2ccccc12", "max response, negative = inhibition": "inconclusive: -33.8%"},
      {"smiles": "CCC(=NCC1CCCO1)c1c(O)n(-c2ccccc2)c(=O)[nH]c1=O", "note": "(stereo not drawn)", "max response, negative = inhibition": "inconclusive: -31.8%"},
      {"smiles": "O=C(N/N=C/c1c(O)n(CCc2ccc(F)cc2)c(=O)[nH]c1=O)c1ccncc1", "max response, negative = inhibition": "inconclusive: -30%"},
      {"smiles": "CCN1CCC(O)(c2ccccc2)C(C(=O)c2ccccc2)C1", "note": "(stereo not drawn)", "max response, negative = inhibition": "inconclusive: -38%"},
      {"smiles": "OC12Oc3ccccc3C=C1N1CCC2CC1", "note": "(stereo not drawn)", "max response, negative = inhibition": "inconclusive: -31.2%"},
      {"smiles": "COC(=O)C1=C(c2ccc(F)cc2OCc2ccccc2)C[C@@H]2CC[C@H]1N2C(=O)N1CCC(C)CC1", "max response, negative = inhibition": "inconclusive: -48.7%"},
      {"smiles": "COc1cccc(O)c1CN1CCCC(C(=O)c2sccc2C)C1", "note": "(stereo not drawn)", "max response, negative = inhibition": "inconclusive: -41.7%"},
      {"smiles": "CCOc1cc(C)cc2oc(=O)c3c(c12)CCCC3", "max response, negative = inhibition": "inactive: -0.165%"},
      {"smiles": "O=C(Nc1ccc(F)cc1)OC1CN2CCC1CC2", "note": "(stereo not drawn)", "max response, negative = inhibition": "inactive: -2.16%"},
      {"smiles": "C[C@]12CCC3C(CC[C@H]4C[C@H](O)CC[C@]34C)C1C[C@H](O)[C@@H]2O", "note": "(stereo partly drawn)", "max response, negative = inhibition": "inactive: 11.7%"},
      {"smiles": "CC(C)(C)n1nnnc1C(c1ccccc1)N1CCC2(CC1)C(=O)NCN2c1ccccc1", "note": "(stereo not drawn)", "max response, negative = inhibition": "active: -67.4%"},
      {"smiles": "CC1=NCCc2c1[nH]c1ccccc21", "max response, negative = inhibition": "inconclusive: -38.5%"},
      {"smiles": "Cc1ccccc1CN1CCN(c2ccc(Cl)cc2)CC1", "max response, negative = inhibition": "inconclusive: -33.4%"},
      {"smiles": "CN1/C(=C\\C=C2C(=O)NC(=O)NC2=O)C(C)(C)c2ccccc21", "max response, negative = inhibition": "inactive: 0.948%"},
      {"smiles": "CC1(C)CC2(CCO1)NCCN1C(=O)CSC12", "note": "(stereo not drawn)", "max response, negative = inhibition": "inactive: 7.02%"},
      {"smiles": "Cc1ccsc1/C=C1\\C(=O)NC(=S)N(C)C1=O", "max response, negative = inhibition": "inconclusive: -31.6%"},
      {"smiles": "CCc1ccc(CNCCc2c[nH]c3ccccc23)cc1", "max response, negative = inhibition": "inconclusive: -35.8%"},
      {"smiles": "COc1ccc(OC)c(CN2CCN(C(=O)COc3cccc(C)c3)CC2)c1", "max response, negative = inhibition": "inconclusive: -49%"},
      {"smiles": "Cn1cccc1/C=C1\\C(=O)NC(=O)N(Cc2ccccc2)C1=O", "max response, negative = inhibition": "inconclusive: -36.4%"},
      {"smiles": "CCC(=O)CC(c1ccc([N+](=O)[O-])cc1)c1c(O)c2ccccc2oc1=O", "note": "(stereo not drawn)", "max response, negative = inhibition": "active: -88.6%"},
      {"smiles": "O=[N+]([O-])c1ccc(N2CCCCCC2)c2ncccc12", "max response, negative = inhibition": "inconclusive: -33.2%"},
      {"smiles": "Oc1cc2c(cc1CN1CCN(c3ccc(F)cc3)CC1)OCO2", "max response, negative = inhibition": "active: -66.5%"},
      {"smiles": "Cc1ccc(S(=O)(=O)CC(C)(O)C(=O)Nc2cccc(C(F)(F)F)c2)cc1", "note": "(stereo not drawn)", "max response, negative = inhibition": "inconclusive: -34.2%"},
      {"smiles": "O=C(Cc1c[nH]c2ccccc12)NNCc1ccc(N(CCCl)CCCl)cc1", "max response, negative = inhibition": "inconclusive: -33.4%"},
      {"smiles": "CC(C)C[C@H]1C(=O)N2CCCC2[C@]2(O)O[C@](NC(=O)[C@@H]3C=C4c5cccc6[nH]cc(c56)CC4N(C)C3)(C(C)C)C(=O)N12", "note": "(stereo partly drawn)", "max response, negative = inhibition": "inconclusive: -45%"},
      {"smiles": "O=c1[nH]sc2cc(F)ccc12", "max response, negative = inhibition": "inconclusive: -34.2%"},
      {"smiles": "COc1ccc2[nH]c3c(c2c1)CCNC3", "max response, negative = inhibition": "inconclusive: -37.7%"},
      {"smiles": "CN(C)c1ccc(NC(=O)CN2C(=O)CN=C(c3ccccc3)c3ccccc32)cc1", "max response, negative = inhibition": "inconclusive: -39.4%"},
      {"smiles": "COc1ccc(C(c2nnnn2-c2c(C)cccc2C)N2CCC3(CC2)C(=O)NCN3c2ccccc2)cc1", "note": "(stereo not drawn)", "max response, negative = inhibition": "active: -54.2%"},
      {"smiles": "Cc1nc2cc(F)ccc2n1C1CCN(Cc2nnnn2CCc2ccccc2)CC1", "max response, negative = inhibition": "inactive: -12.7%"},
      {"smiles": "COC(=O)C1=C(c2ccc(S(C)(=O)=O)cc2)C[C@@H]2CC[C@H]1N2C(=O)N1CCC(O)CC1", "max response, negative = inhibition": "inactive: 17.3%"},
      {"smiles": "CNc1ccc2nc3ccccc3[n+](C)c2c1", "max response, negative = inhibition": "active: -58.5%"},
      {"smiles": "Brc1ccc2c(c1)-n1nncc1CN(CC1CCCCC1)C2", "max response, negative = inhibition": "inconclusive: -31.3%"},
      {"smiles": "CC12CN3CCN(C1)CC(C)(C3)C2=NO", "max response, negative = inhibition": "inactive: 16%"},
      {"smiles": "C[C@H]1[C@@H](c2ccccc2)O[C@@H](c2ccccc2Br)N1C", "max response, negative = inhibition": "inactive: 4.42%"},
      {"smiles": "CCC1=CCN(CCc2c(C)[nH]c3ccccc23)CC1", "max response, negative = inhibition": "active: -63.4%"},
      {"smiles": "Cc1cccc(-n2c(C)nc3ccccc3c2=O)c1C", "max response, negative = inhibition": "inactive: -18%"}
    ]}
  ]
}
